# Source: the supplement of paper PMC4635364
# Structures can show the parent of a compound that is named as a salt. Some of the results follow. Repeats in this data set agree poorly, so a single value says little.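 Cells: ReNCell VM human fetal ventral-midbrain neural progenitors, differentiated mitogen-free. Blinded raters compared doublecortin-stained (early neurons) or tyrosine hydroxylase-stained (dopaminergic neurons) images with untreated wells, where 0 means no change. After repeats and both raters were averaged, compounds scoring 2 or above became hits for retesting.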
# Assays:
# [1] = tested on: ReNCell VM; test: neuronal differentiation score (DCX+ cell fraction vs untreated, manual image score) (score (-3 to 3)); higher = more neuronal differentiation; conditions: 2 uM, 2 weeks
# [2] = tested on: ReNCell VM; test: dopaminergic neuron differentiation score (TH+ cell fraction vs untreated, manual image score) (score (0 to 3)); higher = more TH+ dopaminergic neuron differentiation; conditions: 2 uM, 4 weeks, BDNF 10 ng/ml + GDNF 10 ng/ml
compound,measurement,setting,value
O=C(O)c1cn(-c2ccc(F)cc2)c2cc(N3CCNCC3)c(F)cc2c1=O,neuronal differentiation score,[1]; library: Spectrum,inactive: 0
same,dopaminergic neuron differentiation score,[2]; library: Spectrum,inactive: 0
CSC(=N)N [S-Methylisothiourea hemisulfate],neuronal differentiation score,[1]; library: LOPAC,inactive: 0
same,dopaminergic neuron differentiation score,[2]; library: LOPAC,inactive: 0
CC1(C)S[C@@H]2[C@H](NC(=O)[C@H](N)c3ccccc3)C(=O)N2[C@H]1C(=O)O,neuronal differentiation score,[1]; library: Spectrum,inactive: 0
same,dopaminergic neuron differentiation score,[2]; library: Spectrum,inactive: 0
O=C1NS(=O)(=O)c2ccccc21,neuronal differentiation score,[1]; library: Spectrum,inactive: 0
same,dopaminergic neuron differentiation score,[2]; library: Spectrum,inactive: 0
COc1cc2c3cc1Oc1cc(ccc1O)C[C@@H]1c4c(cc(OC)c(O)c4Oc4ccc(cc4)C[C@@H]3N(C)CC2)CC[N+]1(C)C,neuronal differentiation score,[1]; library: Spectrum,inactive: 0
same,dopaminergic neuron differentiation score,[2]; library: Spectrum,inactive: 0
CCN(CC)C(C)CN1c2ccccc2Sc2ccccc21 (stereo not given),neuronal differentiation score,[1]; library: Spectrum,inactive: 0
same,dopaminergic neuron differentiation score,[2]; library: Spectrum,inactive: 0
O=C1Nc2ccccc2C(=O)N2CCCC12 (stereo not given),neuronal differentiation score,[1]; library: Natural,inactive: -1
same,dopaminergic neuron differentiation score,[2]; library: Natural,inactive: 1
CC(=O)Nc1c(I)c(C(=O)N[C@H]2C(O)O[C@H](CO)[C@@H](O)[C@@H]2O)c(I)c(N(C)C(C)=O)c1I (stereo not given in full) [Metrizamide],neuronal differentiation score,[1]; library: Prestwick,inactive: 0
same,dopaminergic neuron differentiation score,[2]; library: Prestwick,inactive: 0
C[C@]12CC[C@@H]3c4ccc(O)cc4CC[C@H]3[C@@H]1CC[C@@H]2O,neuronal differentiation score,[1]; library: Spectrum,inactive: 0
same,dopaminergic neuron differentiation score,[2]; library: Spectrum,inactive: 0
CCOC(=O)[N-]c1c[n+](N2CCOCC2)no1,neuronal differentiation score,[1]; library: Spectrum,inactive: 0
same,dopaminergic neuron differentiation score,[2]; library: Spectrum,inactive: 0
CCC(Cc1c(I)cc(I)c(N)c1I)C(=O)O (stereo not given) [Iopanoic acid],neuronal differentiation score,[1]; library: Prestwick,inactive: 0
same,dopaminergic neuron differentiation score,[2]; library: Prestwick,inactive: 0
CC1(C)OC(=O)C(OCC2CC2)=C1c1ccc(S(C)(=O)=O)cc1,neuronal differentiation score,[1]; library: Spectrum,inactive: 0
same,dopaminergic neuron differentiation score,[2]; library: Spectrum,inactive: 0
OC[C@@H](O)[C@@H](O)CO,neuronal differentiation score,[1]; library: Spectrum,inactive: 0
same,dopaminergic neuron differentiation score,[2]; library: Spectrum,inactive: 0
CCOCC(O)COc1ccc(NC(=O)CC[S+](C)C)cc1 (stereo not given) [Suplatast tosylate],neuronal differentiation score,[1]; library: Tocriscreen,inactive: 0
same,dopaminergic neuron differentiation score,[2]; library: Tocriscreen,inactive: 0
NC(=O)c1ncn([C@@H]2O[C@H](CO)[C@@H](O)[C@H]2O)n1,neuronal differentiation score,[1]; library: Spectrum,inactive: 1
same,dopaminergic neuron differentiation score,[2]; library: Spectrum,inactive: 0
Clc1ccc(CCC(Cn2ccnc2)Sc2c(Cl)cccc2Cl)cc1 (stereo not given),neuronal differentiation score,[1]; library: Spectrum,inactive: 1
same,dopaminergic neuron differentiation score,[2]; library: Spectrum,inactive: 0
C[N+](C)(C)CCCCCC[N+](C)(C)C [Hexamethonium dichloride],neuronal differentiation score,[1]; library: LOPAC,inactive: 0
same,dopaminergic neuron differentiation score,[2]; library: LOPAC,inactive: 0
O=C(O)c1ccc(C=C2SC(=S)N(c3cccc(C(F)(F)F)c3)C2=O)cc1,neuronal differentiation score,[1]; library: Tocriscreen,inactive: 0
same,dopaminergic neuron differentiation score,[2]; library: Tocriscreen,inactive: 0
c1cc2c3c(c1)c1c(n3CCNC2)CCCC1 [WAY 629 hydrochloride],neuronal differentiation score,[1]; library: Tocriscreen,inactive: 0
same,dopaminergic neuron differentiation score,[2]; library: Tocriscreen,inactive: 0
Cc1nnc(SCC2=C(C(=O)O)N3C(=O)[C@@H](NC(=O)Cn4cnnn4)[C@H]3SC2)s1 [Cefazolin sodium],neuronal differentiation score,[1]; library: LOPAC,inactive: 0
same,dopaminergic neuron differentiation score,[2]; library: LOPAC,inactive: 0
CCC(=O)[C@@]1(C)[C@H](C)C[C@H]2[C@@H]3CCC4=CC(=O)C=C[C@]4(C)[C@H]3[C@@H](O)C[C@@]21C [Rimexolone],neuronal differentiation score,[1]; library: Prestwick,inactive: 0
same,dopaminergic neuron differentiation score,[2]; library: Prestwick,inactive: 0
O=C(Oc1cccc2cccnc12)c1ccccc1,neuronal differentiation score,[1]; library: Spectrum,inactive: 0
same,dopaminergic neuron differentiation score,[2]; library: Spectrum,inactive: 0
CN(C)c1ccc2nc3ccc(=[N+](C)C)cc-3sc2c1,neuronal differentiation score,[1]; library: Spectrum,inactive: -3
same,dopaminergic neuron differentiation score,[2]; library: Spectrum,inactive: 0
CC1(C)S[C@@H]2[C@H](NC(=O)C(C(=O)O)c3ccccc3)C(=O)N2[C@H]1C(=O)O (stereo not given in full),neuronal differentiation score,[1]; library: Spectrum,inactive: 0
same,dopaminergic neuron differentiation score,[2]; library: Spectrum,inactive: 0
CCC(C)C(NC)C(=O)O (stereo not given),neuronal differentiation score,[1]; library: Spectrum,inactive: 0
same,dopaminergic neuron differentiation score,[2]; library: Spectrum,inactive: 0
"Nc1c2c(nc3ccccc13)CCCC2 [9-Amino-1,2,3,4-tetrahydroacridine hydrochloride]",neuronal differentiation score,[1]; library: LOPAC,inactive: 0
same,dopaminergic neuron differentiation score,[2]; library: LOPAC,inactive: 0
CC1(C)O[C@@H]2C[C@H]3[C@@H]4CCC5=CC(=O)CC[C@]5(C)[C@@]4(F)[C@@H](O)C[C@]3(C)[C@]2(C(=O)CCl)O1 [Halcinonide],neuronal differentiation score,[1]; library: Prestwick,inactive: 0
same,dopaminergic neuron differentiation score,[2]; library: Prestwick,inactive: 0
C=CCSCC(N)C(=O)O (stereo not given),neuronal differentiation score,[1]; library: Spectrum,inactive: 0
same,dopaminergic neuron differentiation score,[2]; library: Spectrum,inactive: 0
C=CCN1CCc2c(cc(O)c(O)c2Br)[C@@H](c2ccccc2)C1 [R(+)-6-Bromo-APB hydrobromide],neuronal differentiation score,[1]; library: LOPAC,inactive: 0
same,dopaminergic neuron differentiation score,[2]; library: LOPAC,inactive: 0
NCCSSCCN [Cystamine dihydrochloride],neuronal differentiation score,[1]; library: LOPAC,inactive: 0
same,dopaminergic neuron differentiation score,[2]; library: LOPAC,inactive: 0
CC(=O)c1ccc(S(=O)(=O)NC(=O)NC2CCCCC2)cc1,neuronal differentiation score,[1]; library: Spectrum,inactive: 0
same,dopaminergic neuron differentiation score,[2]; library: Spectrum,inactive: 0
NCC(O)C1CCCCCCC1 (stereo not given) [2-Cyclooctyl-2-hydroxyethylamine hydrochloride],neuronal differentiation score,[1]; library: LOPAC,inactive: 0
same,dopaminergic neuron differentiation score,[2]; library: LOPAC,inactive: 0
CN(C)[C@@H]1CCc2[nH]c3ccc(NC(=O)c4ccc(F)cc4)cc3c2C1,neuronal differentiation score,[1]; library: Tocriscreen,inactive: 0
same,dopaminergic neuron differentiation score,[2]; library: Tocriscreen,inactive: 0
"CN(C)CCC(c1ccc(Br)cc1)c1ccccn1 (single isomer, unassigned; (+)) [(+)-Brompheniramine maleate]",neuronal differentiation score,[1]; library: LOPAC,inactive: 0
same,dopaminergic neuron differentiation score,[2]; library: LOPAC,inactive: 0
CCN(CC)C(=S)SSC(=S)N(CC)CC,neuronal differentiation score,[1]; library: Spectrum,inactive: 0
same,dopaminergic neuron differentiation score,[2]; library: Spectrum,inactive: 0

# Reformatted as tab-separated lines: part of the list above.
compound	measurement	setting	value
CSC(=N)N [S-Methylisothiourea hemisulfate]	neuronal differentiation score	[1]; library: LOPAC	inactive: 0
same	dopaminergic neuron differentiation score	[2]; library: LOPAC	inactive: 0
CC1(C)S[C@@H]2[C@H](NC(=O)[C@H](N)c3ccccc3)C(=O)N2[C@H]1C(=O)O	neuronal differentiation score	[1]; library: Spectrum	inactive: 0
same	dopaminergic neuron differentiation score	[2]; library: Spectrum	inactive: 0
O=C1NS(=O)(=O)c2ccccc21	neuronal differentiation score	[1]; library: Spectrum	inactive: 0
same	dopaminergic neuron differentiation score	[2]; library: Spectrum	inactive: 0
